Test system: tonic hind limb extensor convulsions induced by electroshock (generalised seizure)
Experiment: mini-MEST (maximal electroshock seizure threshold) test in the mouse
Details: i.p., 30 min post dose, diazepam 2.5 mg/kg, Compound I 100 mg/kg, Compound II 150 mg/kg
Protocol: The maximal electroshock seizure threshold (MEST) test is widely utilized preclinically to evaluate pro- or anti-convulsant properties of test compounds (Loscher et al., 1991).
In the MEST test the ability of a drug to alter the seizure threshold current required to induce hind limb tonic extensor convulsions is measured according to an “up and down” method of shock titration (Kimball et al., 1957). An increase in seizure threshold is indicative of anti-convulsant effect.
The ability of a test compound to alter the stimulus intensity, expressed as current (mA), required to induce the presence of tonic hind limb extensor convulsions, is assessed in the MEST.
Naïve mice were acclimatised to the procedure room in their home cages for up to 7 days, with food and water available ad libitum.
All animals were weighed at the beginning of the study and randomly assigned to treatment groups based on a mean distribution of body weight across groups.
The first animal within a treatment group was given a shock at the expected or estimated CC50 current. […]
Test compound effects were also calculated as percentage change in CC50 from the vehicle control group.
Significant difference between drug-treated animals and controls were assessed according to Litchfield and Wilcoxon (1949).

CN1C(=O)CN=C(c2ccccc2)c2cc(Cl)ccc21 [Diazepam, diazepam, reference compound]
CC50 +/- SEM (current producing tonic hind limb extension in 50% of animals) (N=6): 97.8 ± 3.7 mA
CC50 +/- SEM (current producing tonic hind limb extension in 50% of animals) (N=6, listed as diazepam): 97.8 mA

— patent publication US20240254072A1, “DERIVATIVES OF CANNABIDIOL-C4 FOR THE TREATMENT OF EPILEPSY” (priority 2021, published 2024)
